Assay [1] addresses T1, FLAG-tagged RAD51AP1-F3 fragment (residues 188-335) (human) (UniProt Q96B01).
T1 sequence: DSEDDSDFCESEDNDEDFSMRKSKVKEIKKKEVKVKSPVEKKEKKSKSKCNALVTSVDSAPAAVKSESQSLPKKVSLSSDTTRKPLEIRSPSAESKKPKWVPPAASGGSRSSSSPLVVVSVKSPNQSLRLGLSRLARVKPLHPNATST
As to the kind of experiment: co-IP; anti-FLAG precipitates from lysates of cells synchronized by a double thymidine block and released into early S phase (50 min); Western blot. (In general: A western blot detects proteins with antibodies after separation by electrophoresis.)

For assay [2], the target named is T2, FLAG-tagged RAD51AP1-F3-S224A/S277A/S310A (residues 188-335) (human) (UniProt Q96B01).
T2 sequence: T1 sequence with S37A, S90A, S123A
The description is as above.

The target of assay [3] is T3, FLAG-tagged RAD51AP1-F3-S224A/S310A (residues 188-335) (human) (UniProt Q96B01).
T3 sequence: T1 sequence with S37A, S123A
Described as above.

In assay [4] the target is T4, FLAG-tagged wild-type RAD51AP1 (RAD51-associated protein 1, isoform 2) (human) (UniProt Q96B01).
T4 sequence: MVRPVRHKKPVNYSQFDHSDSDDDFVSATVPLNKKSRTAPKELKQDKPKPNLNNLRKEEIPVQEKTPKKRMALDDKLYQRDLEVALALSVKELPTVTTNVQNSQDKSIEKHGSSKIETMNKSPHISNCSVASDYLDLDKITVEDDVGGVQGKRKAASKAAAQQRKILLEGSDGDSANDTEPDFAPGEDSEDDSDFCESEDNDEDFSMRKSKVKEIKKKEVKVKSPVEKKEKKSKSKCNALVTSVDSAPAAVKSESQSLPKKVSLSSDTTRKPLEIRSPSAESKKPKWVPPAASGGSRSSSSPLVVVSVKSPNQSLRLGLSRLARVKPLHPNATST
The assay is described as above.

The target of assay [5] is T4, FLAG-tagged wild-type RAD51AP1 (RAD51-associated protein 1, isoform 2) (human). Nature of the assay: condition: only cells arrested in late G2/M phase by nocodazole; co-IP; anti-FLAG precipitates from lysates of cells released from a double thymidine block and arrested in late G2/M phase with nocodazole (80 ng/ml, 14 h); Western blot.

The source of these data is article PMC12887393.

Changes are numbered by the printed parent chain. These are yes or no findings as the source states them, for the method shown. In cells and extracts the contact can be indirect. For some assays here: Binding can be weak; no strength is given. Where a sequence is shown, tags or fusion partners need not be part of it.

Take Cyclin A (human (endogenous in HeLa)): the binding result is on record as “binds” in assay [1]; “binds” in assay [2]; “binds” in assay [3]; “binds” in assay [4]; “no binding” in assay [5].
